According to publication PMC3679034:
Positions count from the first letter of the chain named. These are yes or no findings as the source states them, for the method shown. Binding seen in cells or lysates may run through a third protein. Binding calls can cover weak binding; strength is not graded here. Where a sequence is shown, tags or fusion partners need not be part of it.

Experiments:
Assay in all cases: co-IP; lysates of L6 myoblasts transiently transfected with FLAG-GLUT1 constructs, treated for one hour with vehicle (DMSO), 6 µM CP466722 (ATM inhibitor) or 1 µM doxorubicin (ATM activator); FLAG antibodies overnight at 4°C, protein A sepharose 4 hours at 4°C, five washes with lysis buffer (50 mM HEPES pH 7.4, 150 mM NaCl, 1% Triton X-100); Western blot for GIPC1 and stomatin
FLAG-GLUT1 S490A = target: T1, FLAG-GLUT1 S490A (UniProt P11167)
T1 sequence: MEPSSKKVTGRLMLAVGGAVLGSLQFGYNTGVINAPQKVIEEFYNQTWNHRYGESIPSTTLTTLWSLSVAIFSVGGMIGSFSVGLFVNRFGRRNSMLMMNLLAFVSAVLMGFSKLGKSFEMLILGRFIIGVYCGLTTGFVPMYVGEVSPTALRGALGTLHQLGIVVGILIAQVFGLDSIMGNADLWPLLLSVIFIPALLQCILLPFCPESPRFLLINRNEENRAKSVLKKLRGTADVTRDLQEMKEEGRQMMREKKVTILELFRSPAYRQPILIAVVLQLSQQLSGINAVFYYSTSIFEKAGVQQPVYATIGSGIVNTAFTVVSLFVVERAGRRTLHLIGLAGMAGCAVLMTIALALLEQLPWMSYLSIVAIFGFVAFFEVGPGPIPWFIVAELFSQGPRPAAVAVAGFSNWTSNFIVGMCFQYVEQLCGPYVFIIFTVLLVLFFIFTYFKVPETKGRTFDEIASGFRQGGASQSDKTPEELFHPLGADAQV

FLAG-GLUT1 S490D = target: T2, FLAG-GLUT1 S490D (UniProt P11167)
T2 sequence: T1 sequence with A490D

FLAG-GLUT1 = target: T3, FLAG-GLUT1 (UniProt P11167)
T3 sequence: T1 sequence with A490S

Measured: binding

stomatin (STOM) (rat (endogenous in L6))
binds: all assays above
